The results in this text go back to PubChem BioAssay AID226 (DTP/NCI, 2004).

Each structure is given as a SMILES string. The list does not hold the whole screen: it is rich in T/C values a quarter to a half above the control, in often repeated tests (any T/C) and in doses without a T/C. Further doses and runs are listed elsewhere. T/C gives the treated animals as a percentage of the vehicle group. Some entries give survivors of the animals treated and no T/C: the source holds a T/C of zero for them, seemingly a mark for toxic or unscored doses. Some doses without a T/C left all or most animals alive at the check, yet need not have been tolerated: the source hardly ever lists a survival T/C far under the control, and the zero likely stands for such cases as well. Survivors were counted at the toxicity check, usually on the fifth day, unless a day is given; later deaths do not show. Schedule codes are those of the source, read here as Q, the interval in days (D) or hours (H), X, the number of doses. Some entries were tested several times; the results are listed from low to high. Brackets with × stand for listed records that agree. Where survival is the endpoint, this PubChem deposit counts one and a half times the control or more as active, and values a quarter to a half above the control carry no call in these data; other NCI protocols may use other cut-offs. Some T/C values are followed by the survivors on the day toxicity was checked, most often the fifth; where none is given, no animal had died by that day.

The subject of this assay is B6C3F1 mice, intracerebral ependymoblastoma, median survival T/C. The assay can be described thus: NCI In Vivo Anticancer Drug Screen. Data for tumor model Ependymoblastoma (intracerebral) in B6C3F1 mice. The settings on record: T/C endpoint: median survival time, higher T/C = longer survival. The method, then:
The antitumor activity of compounds was measured in mice bearing transplantable tumors. Survival or tumor size were measured and the results are expressed as the measurement made in the treated group (T) divided by the measurement made in the vehicle treated control group (C). The tumor model used in this assay is Ependymoblastoma (intracerebral) in B6C3F1 mice

Where [1] appears, read: dose: 256.0 mg/kg/injection, schedule: Q01DX005 (ip), vehicle: saline.
Setting [2] is: dose: 128.0 mg/kg/injection, schedule: Q01DX005 (ip), vehicle: saline.
Setting [3] is: dose: 128.0 mg/kg/injection, schedule: Q01DX005 (ip), vehicle: saline with Tween-80.
The mark [4] stands for this setting: dose: 256.0 mg/kg/injection, schedule: Q01DX005 (ip), vehicle: saline with Tween-80.
The mark [5] stands for this setting: dose: 16.0 mg/kg/injection, schedule: Q01DX005 (ip), vehicle: saline.
The mark [6] stands for this setting: dose: 32.0 mg/kg/injection, schedule: Q01DX005 (ip), vehicle: saline.
Setting [7] is: dose: 64.0 mg/kg/injection, schedule: Q01DX005 (ip), vehicle: saline with Tween-80.
Where [8] appears, read: dose: 400.0 mg/kg/injection, schedule: Q01DX005 (ip), vehicle: Klucel (hydroxypropylcellulose) (HPC).
Where [9] appears, read: dose: 800.0 mg/kg/injection, schedule: Q01DX001 (ip), vehicle: Klucel (hydroxypropylcellulose) (HPC).

In the case of `O=NN(CCF)C(=O)NC1CCC(=O)NC1=O` (stereo not given), where the note is “dose: 40.0 mg/kg/injection, schedule: Q01DX005 (ip), vehicle: Klucel (hydroxypropylcellulose) (HPC)”, the survivor count is on record as 5 of 10 on day 6.
With `NC(=S)c1cn(C2OC(CO)C(O)C2O)c2ncnc(N)c12` (stereo not given), the survivor count (dose: 15.0 mg/kg/injection, schedule: Q01DX005 (ip), vehicle: suspension in saline) was 3 of 10.
As to `CN1CCC23c4c5ccc(O)c4OC2C(O)C=CC3C1C5` (stereo not given), under setting [1], the survivor count is 1 of 5.
For `CSCS(=O)C[C@H](CO)NC(=O)/C=C/c1c(C)[nH]c(=O)[nH]c1=O` (stereo not given in full), the survivor count was 0 of 10 (dose: 0.06 mg/kg/injection, schedule: Q01DX005 (ip), vehicle: Klucel (hydroxypropylcellulose) (HPC)); 0 of 10 (dose: 0.12 mg/kg/injection, schedule: Q01DX005 (ip), vehicle: Klucel (hydroxypropylcellulose) (HPC)); 0 of 10 (dose: 0.25 mg/kg/injection, schedule: Q01DX005 (ip), vehicle: Klucel (hydroxypropylcellulose) (HPC)); 0 of 10 (dose: 0.5 mg/kg/injection, schedule: Q01DX005 (ip), vehicle: Klucel (hydroxypropylcellulose) (HPC)).
Consider `COc1cc2cc3c4cc(OC)c(OC)cc4cc[n+]3c(C)c2cc1OC` (tested in a mixture with another compound), for which the survivor count was 8 of 10 under setting [2]; 0 of 10 and 1 of 10 under setting [1].
On to `CC(C)NCC(O)COc1cccc2ccccc12` (stereo not given), for which the survivor count runs as follows: under setting [3], 6 of 10; (dose: 128.0 mg/kg/injection, schedule: Q01DX009 (ip), vehicle: saline with Tween-80) 2 of 10; under setting [4], 0 of 10; (dose: 256.0 mg/kg/injection, schedule: Q01DX009 (ip), vehicle: saline with Tween-80) 0 of 10.
On to `Nc1ncn(C2OC(CO)C(O)C2O)c(=O)n1` (stereo not given), for which the T/C (dose: 4.69 mg/kg/injection, schedule: Q03HX024 (ip), vehicle: saline) was 141 % of control. Moreover, the survivor count reads like this: (dose: 6.0 mg/kg/injection, schedule: Q01DX005 (ip), vehicle: saline) 10 of 10; (dose: 18.75 mg/kg/injection, schedule: Q03HX024 (ip), vehicle: saline) 10 of 10; (dose: 37.5 mg/kg/injection, schedule: Q03HX024 (ip), vehicle: saline) 10 of 10; (dose: 75.0 mg/kg/injection, schedule: Q03HX024 (ip), vehicle: saline) 10 of 10.
For `Nc1nc([Se])c2ncn(C3OC(CO)C(O)C3O)c2n1` (stereo not given), the T/C was 129 % of control (dose: 16.0 mg/kg/injection, schedule: Q01DX005 (ip), vehicle: saline with Tween-80); 127 % of control under setting [5]; 129 % of control [9 of 10 alive] (dose: 32.0 mg/kg/injection, schedule: Q01DX005 (ip), vehicle: saline with Tween-80); 125 % of control [9 of 10 alive] under setting [6]. Further, the survivor count is, setting by setting: (dose: 64.0 mg/kg/injection, schedule: Q01DX005 (ip), vehicle: Klucel (hydroxypropylcellulose) (HPC)) 10 of 10; under setting [7], 5 of 10; (dose: 64.0 mg/kg/injection, schedule: Q01DX005 (ip), vehicle: saline) 2 of 10 and 7 of 10 (2×); (dose: 128.0 mg/kg/injection, schedule: Q01DX005 (ip), vehicle: Klucel (hydroxypropylcellulose) (HPC)) 0 of 10; under setting [2], 0 of 10 (2×).
With `COc1cccc2c1C(=O)c1c(O)c3c(c(O)c1C2=O)C[C@@](O)(/C(C)=N/NC(=O)c1ccccc1)C[C@@H]3OC1CC(N)C(O)C(C)O1` (stereo not given in full), the survivor count is, setting by setting: under setting [5], 10 of 10; under setting [6], 9 of 10.
As to `Cc1cnc(/C=N\NC(N)=S)c2cccc(N)c12`, under “dose: 200.0 mg/kg/injection, schedule: Q01DX005 (ip), vehicle: saline with Tween-80”, the survivor count is recorded as 4 of 10.
For the compound `CC1(C)OC2C(COC(=O)c3ccc([N+](=O)[O-])cc3)OC(NC(=O)N(CCCl)N=O)C2O1` (stereo not given), the T/C is 128 % of control (dose: 2.5 mg/kg/injection, schedule: Q01DX009 (ip), vehicle: saline); 129 % of control (dose: 3.12 mg/kg/injection, schedule: Q01DX009 (ip), vehicle: saline with Tween-80); 141 % of control (dose: 6.25 mg/kg/injection, schedule: Q01DX009 (ip), vehicle: saline with Tween-80). For the same compound, the survivor count runs as follows: (dose: 50.0 mg/kg/injection, schedule: Q01DX009 (ip), vehicle: saline with Tween-80) 8 of 9; (dose: 100.0 mg/kg/injection, schedule: Q01DX009 (ip), vehicle: saline with Tween-80) 10 of 10.
As to `CC(=O)OCC1OC(n2ccc(N)nc2=O)C(OC(C)=O)C1OC(C)=O` (stereo not given), the survivor count is, setting by setting: under setting [8], 10 of 10; (dose: 800.0 mg/kg/injection, schedule: Q01DX005 (ip), vehicle: Klucel (hydroxypropylcellulose) (HPC)) 10 of 10.
Turning to `Nc1nc2c(c(=O)[nH]1)N(C=O)C(CNc1ccc(C(=O)N[C@@H](CCC(=O)O)C(=O)O)cc1)CN2` (stereo not given in full), the T/C is 98 [survivors not given], 99, 99 [survivors not given], 105 % of control [survivors not given] (dose: 128.0 mg/kg/injection, schedule: Q01DX001 (ip), vehicle: saline); 92, 93 [survivors not given], 99 [survivors not given], 103 % of control [survivors not given] (dose: 256.0 mg/kg/injection, schedule: Q01DX001 (ip), vehicle: saline); 91 [survivors not given], 99 [survivors not given], 100, 101 % of control [survivors not given] (dose: 512.0 mg/kg/injection, schedule: Q01DX001 (ip), vehicle: saline); 87 [5 of 10 alive], 90 [survivors not given], 96 [survivors not given], 101 % of control [survivors not given] (dose: 1024.0 mg/kg/injection, schedule: Q01DX001 (ip), vehicle: saline). Further, the survivor count is on record as 6 of 10 (dose: 1024.0 mg/kg/injection, schedule: Q01DX005 (ip), vehicle: saline with Tween-80); 5 of 10 (dose: 1024.0 mg/kg/injection, schedule: Q01DX005 (ip), vehicle: saline); 3 of 10 (dose: 1800.0 mg/kg/injection, schedule: Q04DX003 (ip), vehicle: saline).
Consider `COc1cc(C[C@H]2c3cc(OC)c(OC)cc3CCN2C)c(Oc2cc3c(cc2OC)-c2c(OC)c(OC)cc4c2[C@H](C3)N(C)CC4)cc1OC`, for which the T/C is, setting by setting: (dose: 100.0 mg/kg/injection, schedule: Q01DX001 (ip), vehicle: Klucel (hydroxypropylcellulose) (HPC)) 94, 100, 111 [survivors not given], 113 % of control [survivors not given]; (dose: 200.0 mg/kg/injection, schedule: Q01DX001 (ip), vehicle: Klucel (hydroxypropylcellulose) (HPC)) 103, 103 [survivors not given], 108, 112 % of control [survivors not given]; (dose: 400.0 mg/kg/injection, schedule: Q01DX001 (ip), vehicle: Klucel (hydroxypropylcellulose) (HPC)) 94 [survivors not given], 104, 105, 107 % of control [survivors not given]; under setting [9], 100 [9 of 10 alive on day 9], 104 [survivors not given], 119 % of control [survivors not given]. The survivor count reads like this: (dose: 100.0 mg/kg/injection, schedule: Q01DX005 (ip), vehicle: Klucel (hydroxypropylcellulose) (HPC)) 0 of 10 and 4 of 10; (dose: 200.0 mg/kg/injection, schedule: Q01DX005 (ip), vehicle: Klucel (hydroxypropylcellulose) (HPC)) 0 of 10 and 1 of 10; under setting [8], 0 of 10; under setting [9], 7 of 10.
Turning to `CN(C)N=Nc1ccc(C(N)=O)cc1`, the T/C under setting [7] is 145 % of control. The survivor count is 9 of 10 under setting [3] and 0 of 10 under setting [4].
